Experimental data as given in US20110091479A1 (PIERRE FABRE MEDICAMENT, published 2011).
No constants are given. Whether binding was seen depends on the method and setting. Some entries that bind do so weakly or less than the wild type.

The chains behind the UniProt entries cited, without tags or fusion partners. Residues count along the entry.
UniProt P08069, residues 31-1367: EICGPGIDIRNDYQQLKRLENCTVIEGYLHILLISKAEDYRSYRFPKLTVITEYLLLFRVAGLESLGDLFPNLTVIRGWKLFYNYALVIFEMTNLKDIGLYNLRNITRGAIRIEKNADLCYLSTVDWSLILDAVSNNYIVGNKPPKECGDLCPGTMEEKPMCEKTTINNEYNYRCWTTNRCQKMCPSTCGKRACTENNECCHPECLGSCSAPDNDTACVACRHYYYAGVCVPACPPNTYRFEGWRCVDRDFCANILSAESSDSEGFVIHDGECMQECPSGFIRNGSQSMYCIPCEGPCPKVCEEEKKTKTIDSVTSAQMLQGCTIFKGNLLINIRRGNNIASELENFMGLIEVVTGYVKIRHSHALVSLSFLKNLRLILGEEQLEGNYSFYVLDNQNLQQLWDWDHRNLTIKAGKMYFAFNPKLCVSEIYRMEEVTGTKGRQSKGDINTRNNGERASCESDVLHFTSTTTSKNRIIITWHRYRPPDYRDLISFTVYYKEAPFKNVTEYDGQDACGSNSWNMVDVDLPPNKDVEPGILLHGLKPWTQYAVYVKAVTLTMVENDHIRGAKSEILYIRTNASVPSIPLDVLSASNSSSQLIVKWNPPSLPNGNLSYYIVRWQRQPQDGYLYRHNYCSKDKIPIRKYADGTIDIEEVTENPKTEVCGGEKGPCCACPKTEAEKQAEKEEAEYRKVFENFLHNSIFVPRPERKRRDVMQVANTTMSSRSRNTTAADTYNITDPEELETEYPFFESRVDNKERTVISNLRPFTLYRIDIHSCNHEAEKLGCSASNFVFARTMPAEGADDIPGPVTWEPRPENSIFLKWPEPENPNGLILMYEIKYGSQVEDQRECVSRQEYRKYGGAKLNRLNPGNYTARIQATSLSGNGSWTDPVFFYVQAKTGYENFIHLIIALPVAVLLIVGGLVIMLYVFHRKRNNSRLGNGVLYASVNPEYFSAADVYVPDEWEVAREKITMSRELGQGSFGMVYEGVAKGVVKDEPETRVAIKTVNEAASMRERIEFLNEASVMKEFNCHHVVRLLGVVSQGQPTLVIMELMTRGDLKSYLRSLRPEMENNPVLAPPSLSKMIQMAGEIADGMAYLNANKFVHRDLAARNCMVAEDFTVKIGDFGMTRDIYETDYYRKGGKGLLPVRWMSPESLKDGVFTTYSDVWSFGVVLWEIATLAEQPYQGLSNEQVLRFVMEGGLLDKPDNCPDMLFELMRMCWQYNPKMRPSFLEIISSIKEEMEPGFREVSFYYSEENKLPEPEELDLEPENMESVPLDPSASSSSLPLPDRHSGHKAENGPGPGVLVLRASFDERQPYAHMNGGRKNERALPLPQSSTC

Tests used:
[1] = molecular target: human insulin-like growth factor I receptor IGF-IR (human) (UniProt P08069); assay: FACSCAN analysis on MCF-7 cells
[2] = molecular target: human insulin-like growth factor I receptor IGF-IR (human) (UniProt P08069); assay: FACSCAN analysis on Sf9 IGF-1R+ cells

B1: 12D5 (antibody, V domains shown)
VH: QVQLKESGPGLVAPSQSLSITCTVSGFSLNEYGVSWIRQPPGKGLEWLGVIWGGRDTYYHSPLKSRLSITKDNSKSQVFLKMNSLQTDDTAMYYCAKHEGMDYWGQGTSVTVSS
VL: DIVMTQSQKFMSTSVGDRVSVTCKASQNVVTNVAWYQHKPGHSPKPLIYSASYRYSGVPDRFTGSGSGTDFTLTINNVQSEDLAEYFCHQYNNFPLTFGAGTKLELK
For B1, which binding [1] is on record?
Its binding is “binds”.

What about the binding [2] of the same binder?
Its binding is “binds”.
